Test results reported in patent US20140004499A1, “BIOSURFACE ENGINEERING” (priority 2011, published 2014).
At least one compound was matched to its structure with a doubt left.

System: O group red blood cells (RBCs)
Test: Serology of kodecytes with monoclonal preparations
Format: cell-based
Set-up: scale not given here
Details: kodecytes prepared at 200 μg/mL construct
Experimental: The use of aqueous solutions of the construct designated Atri-S1-chol (I), the construct designated Atri-S1-S5-DOPE (V) and the construct designated Atri-S1-S5-S4-S5-DOPE (VI) in the localisation of Atri (F) to cell surfaces was also compared. (The constructs designated Atri-S1-S5-DOPE (V) and […] (VI) (FIG. 11) were prepared according to Bovin et al (2005) and Bovin et al (2009)). Volumes (40 μL) of packed, washed O group red blood cells (RBCs) were resuspended in equal volumes of solutions of each of the three constructs at a concentration of 200 μg/mL in PBS. The resuspended RBCs were incubated at room temperature for 4 hours prior to storage at 4° C. overnight. Serology was performed as described by Bovin et al (2005) using a range of monoclonal preparations and sera.

SMILES | Serology score (Anti-A (ABO1) Diagast) | Serology score (Anti-A ALBAclone) | Serology score (Anti-A BRG) | Serology score (Anti-A Biotec) | Serology score (Anti-A Biotest) | Serology score (Anti-A CSL Epiclone) | Serology score (Anti-A CSL) | Serology score (Anti-A Diagast) | Serology score (Anti-A Diagnostics Scotland) | Serology score (Anti-A Immucor) | Serology score (Anti-A Lorne) | Serology score (Anti-A Millipore) | Serology score (Anti-A Ortho-BioClone) | Serology score (Anti-A Ortho-MoltenClone) | Serology score (Anti-A Span) | Serology score (Anti-A ortho) | Serology score (Anti-A, B CSL) | Serology score (Anti-A/B Immucor) | Serology score (Anti-A/B Ortho-BioClone) | Serology score (Anti-A/B Ortho-MoltenClone) | other results
CCCCCCCCC=CCCCCCCCC(=O)OCC(COP(=O)([O-])OCCNC(=O)CCCCC(=O)NCCCOC1OC(CO)C(O)C(OC2OC(CO)C(O)C(O)C2NC(C)=O)C1OC1OC(C)C(O)C(O)C1O)OC(=O)CCCCCCCC=CCCCCCCCC.[Na+] (stereo not shown) [V] | +++ | ++++ | ++++ | ++++ | ++++ | ++++ | ++++ | ++++ | ++++ | ++++ | ++++ | ++++ | ++++ | ++++ | ++++ | ++++ | ++++ | ++++ | ++++ | ++++ | Serology score (Anti-A, B Diagnostics Scotland): ++++; Serology score (Anti-A/B ALBAclone): ++++; Serology score (Anti-A/B CSL Epiclone): ++++; Serology score (Anti-A/B Dominion (Novaclone)): ++++; Serology score (Diagast Anti-A/B (ABO3)): +
CC(=O)NC1C(OC2C(O)C(CO)OC(OCCCNC(=O)OC3CCC4(C)C(=CCC5C4CCC4(C)C(C(C)CCCC(C)C)CCC54)C3)C2OC2OC(C)C(O)C(O)C2O)OC(CO)C(O)C1O (stereo not shown) [I] | – | – | – | ++++ | – | – | – | – | – | ++ | – | ++ | – | ++++ | – | – | – | ++ | + | + | –
CCCCCCCC/C=C\CCCCCCCC(=O)OCC(COP(=O)([O-])OCCNC(=O)CCCCC(=O)NCC(=O)NCC(=O)N(CC(=O)[O-])CC(=O)NCC(=O)NCC(=O)N(CC(=O)[O-])CC(=O)NCCNC(=O)CN(CC(=O)[O-])C(=O)CNC(=O)CNC(=O)CN(CC(=O)[O-])C(=O)CNC(=O)CNC(=O)CCCCC(=O)NCCCO[C@@H]1O[C@H](CO)[C@H](O)[C@H](O[C@H]2O[C@H](CO)[C@H](O)[C@H](O)[C@H]2NC(C)=O)[C@H]1O[C@@H]1O[C@@H](C)[C@@H](O)[C@@H](O)[C@@H]1O)OC(=O)CCCCCCC/C=C\CCCCCCCC.[Na+].[Na+].[Na+].[Na+].[Na+] (stereo partly shown) [VI] | ++++ | ++++ | ++++ | ++++ | ++++ | ++++ | ++++ | ++++ | ++++ | ++++ | ++++ | ++++ | ++++ | ++++ | ++++ | ++++ | ++++ | ++++ | ++++ | ++++ | Serology score (Anti-A, B Diagast): ++++; Serology score (Anti-A, B Diagnostics Scotland): ++++; Serology score (Anti-A/B ALBAclone): ++++; Serology score (Anti-A/B CSL Epiclone): ++++; Serology score (Anti-A/B Dominion (Novaclone)): ++++; Serology score (Diagast Anti-A/B (ABO3)): ++++
